PubChem BioAssay AID1259254, NCATS, 2017

Screen: 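Finding genes that stop cells copying their DNA twice in one cycle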 (primary screen)
Cell system: human HCT116 colorectal cancer cells
Reagent: single siRNA against human genes
Duration: 3 days
Detection: 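Imaged Hoechst DNA stain sorts each cell into a cycle phase by DNA amount; per plate, G2 fraction set to 0% for non-targeting and 100% for GMNN siRNA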
Scale: G2 robust z-score: higher = more G2 cells, more excess DNA replication
Rule for the call: 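An siRNA counts as active if its G2 robust z-score lies at least 5 MADs above the screen median; here such calls match roughly 38% of GMNN control or more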
The whole screen tested about 59,000 reagents; below is a part drawn at random. In the full data, about 1,550 (2.6%) were called active. 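G2 share is only a proxy for re-replication; each gene was hit by three separate siRNAs, and active genes were retested.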 Unmarked entries are inactive. The numbers tell different reagents against one gene apart. Not all columns of the deposit are shown. The record does not give: the amount of reagent.

| Gene | reagent no. | G2 robust z-score |
| --- | --- | --- |
| CSNK1A1L | 1 | 0.0346 |
| CSNK1A1L | 2 | 0.14 |
| CSNK1A1L | 3 | 0.203 |
| DDX39A | 1 | -0.738 |
| DDX39A | 2 | -0.00713 |
| DDX39A | 3 | -0.817 |
| CARINH | 1 | -0.562 |
| CARINH | 2 | 2.87 |
| CARINH | 3 | 0.22 |
| PCDHGC3 | 1 | -0.563 |
| PCDHGC3 | 2 | 1.25 |
| PCDHGC3 | 3 | 2.79 |
| RPL31P50 | 1 | 4.28 |
| RPL31P50 | 2 | 1.31 |
| RPL31P50 | 3 | 0.453 |
| TOR2A | 1 | 3.3 |
| TOR2A | 2 | -0.162 |
| TOR2A | 3 | -0.674 |
| ENO2 | 1 | -0.165 |
| ENO2 | 2 | 2.35 |
| ENO2 | 3 | 0.152 |
| WNT3A | 1 | 2.41 |
| WNT3A | 2 | -0.747 |
| WNT3A | 3 | 0.934 |
| UPK3B | 1 | 0.0616 |
| UPK3B | 2 | -0.0683 |
| UPK3B | 3 | 4.55 |
| VAX2 | 1 | 3.75 |
| VAX2 | 2 | -0.24 |
| VAX2 | 3 | 0.0753 |
| USP36 | 1 | 0.812 |
| USP36 | 2 | 0.529 |
| USP36 | 3 | 0.724 |
| NBPF14 | 1 | 1.06 |
| NBPF14 | 2 | 2.99 |
| NBPF14 | 3 | -0.831 |
| AMIGO3 | 1 | -0.469 |
| AMIGO3 | 2 | -0.734 |
| AMIGO3 | 3 | 0.342 |
| RB1CC1 | 1 | -1.26 |
| RB1CC1 | 2 | -0.582 |
| RB1CC1 | 3 | 0.752 |
| SUDS3 | 1 | 2.5 |
| SUDS3 | 2 | 0.416 |
| SUDS3 | 3 | 0.929 |
| BCAP31 | 1 | -0.445 |
| BCAP31 | 2 | -0.517 |
| BCAP31 | 3 | 2.73 |
| DNAJC24 | 1 | 0.922 |
| DNAJC24 | 2 | 0.477 |
| DNAJC24 | 3 | -0.947 |
| RBM24 | 1 | -0.98 |
| RBM24 | 2 | -1.05 |
| RBM24 | 3 | 2.46 |
| USP20 | 1 | -0.917 |
| USP20 | 2 | 2.02 |
| USP20 | 3 | -0.291 |
| NNT | 1 | -0.342 |
| NNT | 2 | 1.64 |
| NNT | 3 | 0.935 |
| DAPL1 | 1 | -0.385 |
| DAPL1 | 2 | -0.377 |
| DAPL1 | 3 | 2.91 |
| DSTNP4 | 1 | -0.497 |
| DSTNP4 | 2 | 1.81 |
| DSTNP4 | 3 | 0.243 |
| EIF3L | 1 | 1.65 |
| EIF3L | 2 | 1.02 |
| EIF3L | 3 | 2.67 |
| FOXF2 | 1 | -1.41 |
| FOXF2 | 2 | 0.627 |
| FOXF2 | 3 | 0.852 |
| USP44 | 1 | 0.303 |
| USP44 | 2 | -1.52 |
| USP44 | 3 | 0.268 |
| SAMM50 | 1 | 1.61 |
| SAMM50 | 2 | -0.742 |
| SAMM50 | 3 | -0.593 |
| USP34 | 1 | -0.507 |
| USP34 | 2 | 1.73 |
| USP34 | 3 | -0.367 |
| MIR4453HG | 1 | -0.544 |
| MIR4453HG | 2 | -1 |
| MIR4453HG | 3 | 1.63 |
| ENPP1 | 1 | 0.102 |
| ENPP1 | 2 | -0.0985 |
| ENPP1 | 3 | -0.193 |

Quoted from the listing (6 entries):
| Gene | reagent no. | G2 robust z-score |
| --- | --- | --- |
| RPL31P50 | 3 | 0.453 |
| TOR2A | 1 | 3.3 |
| TOR2A | 2 | -0.162 |
| TOR2A | 3 | -0.674 |
| ENO2 | 1 | -0.165 |
| ENO2 | 2 | 2.35 |
